The record followed here is paper PMC3610344, “Differential Cytotoxicity Responses by Dog and Rat Hepatocytes to Phospholipogenic Treatments” (Journal of Toxicology, 2013).

The subject of assay [1] is dog hepatocytes. As to the kind of experiment: Cell survival of primary dog hepatocytes (Cellomics Arrayscan). It counts as cell-based. The following applies: Canis lupus familiaris, Hepatocyte, 24 h, 24 h treatment. The method, then: Primary rat hepatocytes were freshly isolated from Han Wistar rats at AstraZeneca, using the collagenase perfusion method (Selgen, PO, 1976). Primary dog hepatocytes were isolated at AstraZeneca, or purchased from CellzDirect Corp. (Durham, NC), which also uses a collagenase perfusion method. […]
In a modification of the procedure described by Morelli et al., hepatocytes were treated with drugs diluted into culture media containing 12 μg/mL NBD-PE (N-(7-nitrobenz-2-oxa-1,3-diazol-4-yl)-1,2-dihexadecanoyl-sn-glycero-3-phosphoethanolamine, triethylammonium salt) for 24 hours. […] This fluorescent dye stains only cells with compromised cell membranes thereby enabling their exclusion from NBD-PE cell quantitation by the Cellomics ArrayScan instrument. […] Labeled cells were analyzed using the Cellomics Arrayscan instrument (Cellomics Inc., Pittsburgh, PA) with version 3.5 equipment and software. The ArrayScan captures fluorescent images in the 3 channels relevant to this assay (Hoechst, TRITC for Sytox staining and FITC for NBD-PE staining) and performs automated image analysis to quantify cell nuclei, the number of dead cells, and NBD-PE dye fluorescent intensity. […]

The subject of assay [2] is rat hepatocytes. Put plainly: cells. It counts as cell-based. The settings on record: Hepatocyte, 24 h, 24 h treatment, read-out: Survival IC50.

Broadly, the IC50 is the concentration that inhibits the measured activity by half.

As to `CNCCC(Oc1ccc(C(F)(F)F)cc1)c1ccccc1` (centres unmarked) [Fluoxetine, reference compound], the half-maximal inhibitory concentration (IC50) stood at 19 µM in assay [1] and 61 µM in assay [2].
